No constants are given. Whether binding was seen depends on the method and setting. Binding seen in cells or lysates may run through a third protein.
Biological target: T1, Vangl1 (human (endogenous in HUVEC)) (UniProt Q8TAA9)
T1 sequence: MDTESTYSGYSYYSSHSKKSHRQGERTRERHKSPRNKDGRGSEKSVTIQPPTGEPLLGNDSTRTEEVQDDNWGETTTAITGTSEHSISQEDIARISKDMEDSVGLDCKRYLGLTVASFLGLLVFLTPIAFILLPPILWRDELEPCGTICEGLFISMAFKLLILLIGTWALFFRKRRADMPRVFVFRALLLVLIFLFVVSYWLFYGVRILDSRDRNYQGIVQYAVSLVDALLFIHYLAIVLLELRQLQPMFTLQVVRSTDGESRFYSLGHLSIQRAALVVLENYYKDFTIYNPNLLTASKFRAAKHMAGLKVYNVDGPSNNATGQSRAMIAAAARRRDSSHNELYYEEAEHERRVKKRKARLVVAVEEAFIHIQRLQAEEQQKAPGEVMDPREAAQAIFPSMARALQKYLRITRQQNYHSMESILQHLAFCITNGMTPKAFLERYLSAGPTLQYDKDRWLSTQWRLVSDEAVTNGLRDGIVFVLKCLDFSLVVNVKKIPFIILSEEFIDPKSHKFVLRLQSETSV
Test: pull-down

B1: VE-Cadherin (protein, UniProt P33151 48-784)
chain: DWIWNQMHIDEEKNTSLPHHVGKIKSSVSRKNAKYLLKGEYVGKVFRVDAETGDVFAIERLDRENISEYHLTAVIVDKDTGENLETPSSFTIKVHDVNDNWPVFTHRLFNASVPESSAVGTSVISVTAVDADDPTVGDHASVMYQILKGKEYFAIDNSGRIITITKSLDREKQARYEIVVEARDAQGLRGDSGTATVLVTLQDINDNFPFFTQTKYTFVVPEDTRVGTSVGSLFVEDPDEPQNRMTKYSILRGDYQDAFTIETNPAHNEGIIKPMKPLDYEYIQQYSFIVEATDPTIDLRYMSPPAGNRAQVIINITDVDEPPIFQQPFYHFQLKENQKKPLIGTVLAMDPDAARHSIGYSIRRTSDKGQFFRVTKKGDIYNEKELDREVYPWYNLTVEAKELDSTGTPTGKESIVQVHIEVLDENDNAPEFAKPYQPKVCENAVHGQLVLQISAIDKDITPRNVKFKFILNTENNFTLTDNHDNTANITVKYGQFDREHTKVHFLPVVISDNGMPSRTGTSTLTVAVCKCNEQGEFTFCEDMAAQVGVSIQAVVAILLCILTITVITLLIFLRRRLRKQARAHGKSVPEIHEQLVTYDEEGGGEMDTTSYDVSVLNSVRRGGAKPPRPALDARPSLYAQVQKPPRHAPGAHGGPGEMAAMIEVKKDEADHDGDGPPYDTLHIYGYEGSESIAESLSSLGTDSSDSDVDYDFLNDWGPRFKMLAELYGSDPREELLY
binding: no binding

Reference: article doi:10.1101/2024.06.25.600357
